Assay results published in publication PMC7473863.
Read-outs that look alike come from different tables or passages of the source. These are yes or no findings as the source states them, for the method shown. In cells and extracts the contact can be indirect. Some entries that bind do so weakly or less than the wild type. For some assays here: Tags and fused reporters may be left off the sequences shown. One block for each molecule: values may come before it.

The chains behind the UniProt entries cited, without tags or fusion partners. Where a name states a change or a piece, a line headed by the entry shows the natural chain unless it says otherwise. Residues count along the entry.
UniProt O55022: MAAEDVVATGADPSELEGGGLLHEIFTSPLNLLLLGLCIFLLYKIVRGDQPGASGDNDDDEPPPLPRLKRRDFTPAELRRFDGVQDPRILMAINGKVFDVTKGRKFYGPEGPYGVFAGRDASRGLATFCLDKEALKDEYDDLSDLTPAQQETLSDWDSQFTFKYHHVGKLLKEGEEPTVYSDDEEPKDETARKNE
UniProt P35951, residues 22-862: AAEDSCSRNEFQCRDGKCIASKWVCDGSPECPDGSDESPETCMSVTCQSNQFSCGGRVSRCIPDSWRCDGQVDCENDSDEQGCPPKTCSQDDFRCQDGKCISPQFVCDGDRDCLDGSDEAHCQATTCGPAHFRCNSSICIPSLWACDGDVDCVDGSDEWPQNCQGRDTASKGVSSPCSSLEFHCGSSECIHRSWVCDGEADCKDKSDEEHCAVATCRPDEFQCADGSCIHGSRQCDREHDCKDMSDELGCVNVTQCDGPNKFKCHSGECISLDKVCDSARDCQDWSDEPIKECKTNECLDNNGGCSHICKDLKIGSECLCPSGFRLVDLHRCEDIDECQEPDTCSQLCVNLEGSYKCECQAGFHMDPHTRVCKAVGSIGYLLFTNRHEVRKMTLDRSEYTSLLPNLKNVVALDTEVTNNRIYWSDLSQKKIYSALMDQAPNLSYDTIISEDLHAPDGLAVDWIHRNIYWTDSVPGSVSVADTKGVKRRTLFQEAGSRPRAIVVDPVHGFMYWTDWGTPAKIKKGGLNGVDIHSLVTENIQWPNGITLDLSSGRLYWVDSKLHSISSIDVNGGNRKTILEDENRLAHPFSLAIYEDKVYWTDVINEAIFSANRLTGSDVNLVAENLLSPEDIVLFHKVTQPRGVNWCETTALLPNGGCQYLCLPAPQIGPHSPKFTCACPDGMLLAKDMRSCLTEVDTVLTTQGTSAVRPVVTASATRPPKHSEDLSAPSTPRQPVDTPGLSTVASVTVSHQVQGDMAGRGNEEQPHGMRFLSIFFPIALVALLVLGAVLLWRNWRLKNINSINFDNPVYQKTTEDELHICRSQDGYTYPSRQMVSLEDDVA
UniProt P98156, residues 28-873: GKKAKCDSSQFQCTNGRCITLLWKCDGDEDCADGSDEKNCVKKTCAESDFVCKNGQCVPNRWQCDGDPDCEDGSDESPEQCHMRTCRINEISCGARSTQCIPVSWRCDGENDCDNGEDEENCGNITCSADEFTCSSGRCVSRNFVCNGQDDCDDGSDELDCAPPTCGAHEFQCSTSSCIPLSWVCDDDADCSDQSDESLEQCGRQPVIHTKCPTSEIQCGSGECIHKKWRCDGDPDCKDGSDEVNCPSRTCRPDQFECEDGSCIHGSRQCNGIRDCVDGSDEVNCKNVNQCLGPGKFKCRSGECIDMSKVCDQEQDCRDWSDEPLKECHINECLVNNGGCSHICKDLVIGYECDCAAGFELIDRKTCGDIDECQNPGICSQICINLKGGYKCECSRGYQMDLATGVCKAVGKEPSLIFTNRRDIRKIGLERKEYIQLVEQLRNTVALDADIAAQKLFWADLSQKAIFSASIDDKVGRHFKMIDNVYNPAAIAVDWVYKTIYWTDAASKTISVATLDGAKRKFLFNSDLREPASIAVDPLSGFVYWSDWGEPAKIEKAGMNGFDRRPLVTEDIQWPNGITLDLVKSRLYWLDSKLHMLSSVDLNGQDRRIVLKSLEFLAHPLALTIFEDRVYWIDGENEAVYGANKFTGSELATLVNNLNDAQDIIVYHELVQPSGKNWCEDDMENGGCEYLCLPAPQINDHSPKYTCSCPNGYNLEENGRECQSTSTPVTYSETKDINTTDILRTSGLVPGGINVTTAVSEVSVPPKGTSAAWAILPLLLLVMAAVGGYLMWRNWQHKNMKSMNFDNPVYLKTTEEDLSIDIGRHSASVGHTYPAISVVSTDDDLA

Legend:
[1] = target: endogenous PGRMC1 of 3T3L1 cells (mouse (endogenous in 3T3L1)) (UniProt O55022); assay: co-IP; 3T3L1 cell lysate incubated with 1 µg anti-PGRMC1 antibody or normal rabbit IgG for 2 h, then with protein A-sepharose beads overnight; washed three times in NP40 lysis buffer; western blotting
[2] = target: FLAG-tagged PGRMC1 Y113F mutant (mouse) (mouse) (UniProt O55022); assay: co-IP; FLAG-PGRMC1 WT or Y113F overexpressed in 3T3L1 cells; NP40 lysis buffer (20 mmol/l Tris-HCl pH 7.5, 150 mmol/l NaCl, 1% NP40); lysate incubated with anti-FLAG (M2) agarose for 60 min at room temperature; endogenous partners detected by western blotting
[3] = target: FLAG-tagged PGRMC1 WT (mouse progesterone receptor membrane-associated component 1) (mouse) (UniProt O55022); assay: as above
[4] = target: FLAG-tagged PGRMC1 Y113F mutant (mouse) (mouse) (UniProt O55022); assay: as above; remark: listed apart in the source
[5] = target: FLAG-tagged PGRMC1 WT (mouse progesterone receptor membrane-associated component 1) (mouse) (UniProt O55022); assay: as above; remark: listed apart in the source
[6] = target: endogenous PGRMC1 of 3T3L1 cells (mouse (endogenous in 3T3L1)) (UniProt O55022); assay: co-IP; 3T3L1 cell lysate incubated with 1 µg anti-PGRMC1 antibody or normal rabbit IgG for 2 h, then with protein A-sepharose beads overnight; washed three times in NP40 lysis buffer; western blotting; remark: listed apart in the source

- binding [1]: binds
- binding [2]: no binding
- binding [3]: binds
Molecule: low-density lipoprotein receptor (LDL-R), endogenous in 3T3L1 cells (from UniProt P35951 22-862)

- binding [2]: no binding
- binding [3]: binds
Molecule: very-low-density lipoprotein receptor (VLDL-R), endogenous in 3T3L1 cells (from UniProt P98156 28-873)

- binding [4]: no binding
- binding [5]: binds
- binding [6]: binds
B1: glucose transporter 4 (GLUT4), endogenous in 3T3L1 cells (protein, UniProt P14142 1-509)
chain: MPSGFQQIGSDDGEPPRQRVTGTLVLAVFSAVLGSLQFGYNIGVINAPQKVIEQSYNATWLGRQGPGGPDSIPQGTLTTLWALSVAIFSVGGMISSFLIGIISQWLGRKRAMLANNVLAVLGGALMGLANAAASYEILILGRFLIGAYSGLTSGLVPMYVGEIAPTHLRGALGTLNQLAIVIGILVAQVLGLESMLGTATLWPLLLALTVLPALLQLILLPFCPESPRYLYIIRNLEGPARKSLKRLTGWADVSDALAELKDEKRKLERERPMSLLQLLGSRTHRQPLIIAVVLQLSQQLSGINAVFYYSTSIFESAGVGQPAYATIGAGVVNTVFTLVSVLLVERAGRRTLHLLGLAGMCGCAILMTVALLLLERVPAMSYVSIVAIFGFVAFFEIGPGPIPWFIVAELFSQGPRPAAMAVAGFSNWTCNFIVGMGFQYVADAMGPYVFLLFAVLLLGFFIFTFLKVPETRGRTFDQISAAFRRTPSLLEQEVKPSTELEYLGPDEND
